From publication PMC6131810 come the findings set out here.

Amino acid sequences for entries named in this document (tags omitted).
UniProt Q91YI4: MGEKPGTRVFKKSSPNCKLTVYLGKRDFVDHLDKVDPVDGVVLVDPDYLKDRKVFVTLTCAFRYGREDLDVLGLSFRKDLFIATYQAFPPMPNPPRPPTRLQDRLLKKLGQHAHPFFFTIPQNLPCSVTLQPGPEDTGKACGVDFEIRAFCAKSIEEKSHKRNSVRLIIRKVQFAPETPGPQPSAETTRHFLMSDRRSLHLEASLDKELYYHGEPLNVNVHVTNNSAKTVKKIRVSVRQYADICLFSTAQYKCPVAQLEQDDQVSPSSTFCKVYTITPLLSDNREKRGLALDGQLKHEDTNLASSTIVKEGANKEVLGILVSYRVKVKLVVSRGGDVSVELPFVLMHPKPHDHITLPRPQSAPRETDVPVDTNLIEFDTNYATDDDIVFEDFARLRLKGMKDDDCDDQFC

The target in the assay is T1, Transforming growth factor-beta-activated kinase 1 (TAK1)-binding protein 1 (mouse (endogenous in primary astrocytes)) (UniProt Q8CF89).
T1 sequence: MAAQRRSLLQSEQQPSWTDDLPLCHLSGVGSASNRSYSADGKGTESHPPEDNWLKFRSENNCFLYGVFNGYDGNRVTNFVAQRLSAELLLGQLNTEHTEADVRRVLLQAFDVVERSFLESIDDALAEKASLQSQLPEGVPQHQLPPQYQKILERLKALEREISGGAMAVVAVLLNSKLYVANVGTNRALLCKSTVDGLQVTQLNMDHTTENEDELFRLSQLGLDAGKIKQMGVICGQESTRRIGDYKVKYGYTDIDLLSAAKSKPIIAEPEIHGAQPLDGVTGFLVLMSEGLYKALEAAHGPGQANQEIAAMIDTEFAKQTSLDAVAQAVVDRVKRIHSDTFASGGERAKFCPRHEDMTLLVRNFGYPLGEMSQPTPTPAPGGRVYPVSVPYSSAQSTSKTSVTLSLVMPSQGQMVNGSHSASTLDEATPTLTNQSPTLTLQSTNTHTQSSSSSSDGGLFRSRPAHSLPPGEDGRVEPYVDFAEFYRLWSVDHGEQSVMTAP
The assay is described as follows: co-IP; total lysate of mouse primary astrocytes incubated with anti-TAB1 antibody, then protein A/G plus agarose; bound proteins immunoblotted; cells pretreated with quinpirole for 1 h before LPS, WT α-Syn or A53T α-Syn. A general note: A western blot detects proteins with antibodies after separation by electrophoresis.

These are yes or no findings as the source states them, for the method shown. Binding seen in cells or lysates may run through a third protein. Some binding calls cover weakened binding; strength is not graded here.

Regarding β-arrestin2 (from UniProt Q91YI4 1-410), the binding result is recorded as “binds”.

B1: Transforming growth factor-beta-activated kinase 1 (protein, UniProt Q62073 1-579)
chain: MSTASAASSSSSSSASEMIEAPSQVLNFEEIDYKEIEVEEVVGRGAFGVVCKAKWRAKDVAIKQIESESERKAFIVELRQLSRVNHPNIVKLYGACLNPVCLVMEYAEGGSLYNVLHGAEPLPYYTAAHAMSWCLQCSQGVAYLHSMQPKALIHRDLKPPNLLLVAGGTVLKICDFGTACDIQTHMTNNKGSAAWMAPEVFEGSNYSEKCDVFSWGIILWEVITRRKPFDEIGGPAFRIMWAVHNGTRPPLIKNLPKPIESLMTRCWSKDPSQRPSMEEIVKIMTHLMRYFPGADEPLQYPCQYSDEGQSNSATSTGSFMDIASTNTSNKSDTNMEQVPATNDTIKRLESKLLKNQAKQQSESGRLSLGASRGSSVESLPPTSEGKRMSADMSEIEARIVATAGNGQPRRRSIQDLTVTGTEPGQVSSRSSSPSVRMITTSGPTSEKPARSHPWTPDDSTDTNGSDNSIPMAYLTLDHQLQPLAPCPNSKESMAVFEQHCKMAQEYMKVQTEIALLLQRKQELVAELDQDEKDQQNTSRLVQEHKKLLDENKSLSTYYQQCKKQLEVIRSQQQKRQGTS
In the case of B1, the binding entry is given as “binds”.
